Assay results taken from paper PMC9798971, “Alarming and Calming: Opposing Roles of S100A8/S100A9 Dimers and Tetramers on Monocytes” (Advanced Science, 2022).
Where a chain is given by its changes, count along the chain named. Names and notes keep the numbering of the source. These are yes or no findings as the source states them, for the method shown. Some entries that bind do so weakly or less than the wild type. Tags and fused reporters may be left off the sequences shown.

T1: recombinant mouse CD69, His-tagged extracellular domain (mouse) (UniProt P37217)
T1 sequence: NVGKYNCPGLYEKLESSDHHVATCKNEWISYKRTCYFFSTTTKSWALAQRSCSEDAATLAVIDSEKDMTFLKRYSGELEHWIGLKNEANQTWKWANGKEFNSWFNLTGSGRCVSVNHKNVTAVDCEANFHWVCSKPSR

T2: S100A8/S100A9-tetramer (murine) (murine, UniProt P27005 1-89; P31725 1-113)
T2 chain 1: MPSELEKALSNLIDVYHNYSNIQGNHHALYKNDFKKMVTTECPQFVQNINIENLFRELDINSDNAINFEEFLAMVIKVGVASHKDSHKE
T2 chain 2: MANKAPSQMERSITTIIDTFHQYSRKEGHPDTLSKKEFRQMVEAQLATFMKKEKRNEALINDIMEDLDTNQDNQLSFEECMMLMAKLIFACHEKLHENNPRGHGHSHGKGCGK

B1: S100A8/S100A9-tetramer (murine) (complex, UniProt P27005 1-89; P31725 1-113)
chain 1: T2 chain 1
chain 2: T2 chain 2
B2: recombinant mouse CD69, His-tagged extracellular domain (domain or fragment)
chain: T1 sequence
B3: S100A8/S100A9-N70A-heterodimer (murine) (complex, UniProt P27005 1-89; P31725 1-113)
chain 1: T2 chain 1
chain 2: T2 chain 2 with N70A

Legend:
[1] = biological target: T1, recombinant mouse CD69, His-tagged extracellular domain (mouse); assay: quartz crystal microbalance with dissipation (QCM-D); His-tagged CD69 extracellular domain (250 nM) anchored on a DOPC/DGS-Ni-NTA (96:4) supported lipid bilayer on the sensor; S100 proteins (1 µg mL^-1) perfused; 20 °C; HBS (10 mM HEPES, 150 mM NaCl, pH 7.4) with 250 µM CaCl2; imidazole at the end; both purified
[2] = biological target: T2, S100A8/S100A9-tetramer (murine); assay: ELISA; titration ELISA: 10 nM S100A8/S100A9-tetramer coated (HBS plus 250 µM CaCl2); His-tagged CD69 added at increasing concentrations for 1 h; detected with anti-His antibody; non-linear regression, 1:1 model of one tetramer binding one CD69-dimer; both purified

Row | binding [1] | binding [2] | Binder
1 | binds |  | B1
2 |  | binds | B2
3 | no binding (tested: 1 µg mL^-1) |  | B3
